# Experimental data from US20230101835A1.
# Protein sequences, listed by entry. Tags and fused reporters are not part of them. Residues count along the entry.
# UniProt P01024, residues 1002-1303: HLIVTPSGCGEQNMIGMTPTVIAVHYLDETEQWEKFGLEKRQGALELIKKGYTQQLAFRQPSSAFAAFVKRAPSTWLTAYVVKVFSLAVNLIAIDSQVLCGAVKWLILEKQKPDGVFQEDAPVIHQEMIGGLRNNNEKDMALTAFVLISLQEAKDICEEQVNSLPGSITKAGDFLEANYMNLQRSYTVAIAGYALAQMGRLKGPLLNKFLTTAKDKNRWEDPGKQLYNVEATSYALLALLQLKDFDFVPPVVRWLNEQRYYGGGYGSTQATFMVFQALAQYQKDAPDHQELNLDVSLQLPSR
# These are yes or no findings as the source states them, for the method shown. Some results given as binding are weak or reduced against the parent protein; the word gives no strength.
# T1: recombinant human CRP (human) (UniProt P02741)
# T1 sequence (looked up): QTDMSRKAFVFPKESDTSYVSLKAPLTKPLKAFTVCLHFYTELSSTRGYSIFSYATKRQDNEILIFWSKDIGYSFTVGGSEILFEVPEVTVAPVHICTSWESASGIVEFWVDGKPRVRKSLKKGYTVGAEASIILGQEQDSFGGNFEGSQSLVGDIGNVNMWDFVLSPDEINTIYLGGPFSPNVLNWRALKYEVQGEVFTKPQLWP
# Key:
# recombinant C3d = recombinant C3d (UniProt P01024); assay: ELISA on plate-immobilised recombinant C3d, detection with polyclonal goat anti-human FH antibody, A450
# plasma derived C3b [1] = target: plasma derived C3b (UniProt P01024); assay: ELISA on plate-immobilised plasma derived C3b, detection with polyclonal goat anti-human FH antibody, A450
# [2] = target: T1, recombinant human CRP (human); assay: ELISA on plate-coated recombinant human CRP (2 µg/ml)
# plasma derived C3b [3] = target: plasma derived C3b (UniProt P01024); assay: ELISA on plate-coated C3b (5 µg/ml)
binder,measurement,setting,value
"FH^R1-2∧1-5∧18-20 (protein, glycosylation sites on FHR1 CCP domain 2 and FH CCP domain 18) EATFCDFPKINHGILYDEEKYKPFSQVPTGEVFYYSCEYNFVSPSKSFWTRITCTEEGWSPTPKCLRLCFFPFVENGHSESSGQTHLEGDTVQIICNTGYRLQNNENNISCVERGWSTPPKCRSTDTSVDEDCNELPPRRNTEILTGSWSDQTYPEGTQAIYKCRPGYRSLGNIIMVCRKGEWVALNPLRKCQKRPCGHPGDTPFGTFTLTGGNVFEYGVKAVYTCNEGYQLLGEINYRECDTDGWTNDIPICEVVKCLPVTAPENGKIVSSAMEPDREYHFGQAVRFVCNSGYKIEGDEEMHCSDDGFWSKEKPKCVEISCKSPDVINGSPISQKIIYKENERFQYKCNMGYEYSERGDAVCTESGWRPLPSCEEKSCDNPYIPNGDYSPLRIKHRTGDEITYQCRNGFYPATRGNTAKCTSTGWIPAPRCTSGSGGGGGTTSCVNPPTVQNAYIVSRQMSKYPSGERVRYQCRSPYEMFGDEEVMCLNGNWTEPPQCKDSTGKCGPPPPIDNGDITSFPLSVYAPASSVEYQCQNLYQLEGNKRITCRNGQWSEPPKCLHPCVISREIMENYNIALRWTAKQKLYSRTGESVEFVCKRGYRLSSRSHTLRTTCWDGKLEYPTCAKR",binding,recombinant C3d,binds
same,binding,plasma derived C3b [1],binds
"FH^1-5∧18-20∧R1-2 (protein, glycosylation sites on FHR1 CCP domain 2 and FH CCP domain 18) EDCNELPPRRNTEILTGSWSDQTYPEGTQAIYKCRPGYRSLGNIIMVCRKGEWVALNPLRKCQKRPCGHPGDTPFGTFTLTGGNVFEYGVKAVYTCNEGYQLLGEINYRECDTDGWTNDIPICEVVKCLPVTAPENGKIVSSAMEPDREYHFGQAVRFVCNSGYKIEGDEEMHCSDDGFWSKEKPKCVEISCKSPDVINGSPISQKIIYKENERFQYKCNMGYEYSERGDAVCTESGWRPLPSCEEKSCDNPYIPNGDYSPLRIKHRTGDEITYQCRNGFYPATRGNTAKCTSTGWIPAPRCTSGSGGGGVDTTSCVNPPTVQNAYIVSRQMSKYPSGERVRYQCRSPYEMFGDEEVMCLNGNWTEPPQCKDSTGKCGPPPPIDNGDITSFPLSVYAPASSVEYQCQNLYQLEGNKRITCRNGQWSEPPKCLHPCVISREIMENYNIALRWTAKQKLYSRTGESVEFVCKRGYRLSSRSHTLRTTCWDGKLEYPTCAKRGTEATFCDFPKINHGILYDEEKYKPFSQVPTGEVFYYSCEYNFVSPSKSFWTRITCTEEGWSPTPKCLRLCFFPFVENGHSESSGQTHLEGDTVQIICNTGYRLQNNENNISCVERGWSTPPKCRSTDTS",binding,recombinant C3d,binds
same,binding,plasma derived C3b [1],binds
"ND-FHL1 (FH^R1-2∧1-5∧L6-L7) (protein, glycosylation site on FHR1 CCP domain 2) EATFCDFPKINHGILYDEEKYKPFSQVPTGEVFYYSCEYNFVSPSKSFWTRITCTEEGWSPTPKCLRLCFFPFVENGHSESSGQTHLEGDTVQIICNTGYRLQNNENNISCVERGWSTPPKCRSTDTSVDEDCNELPPRRNTEILTGSWSDQTYPEGTQAIYKCRPGYRSLGNIIMVCRKGEWVALNPLRKCQKRPCGHPGDTPFGTFTLTGGNVFEYGVKAVYTCNEGYQLLGEINYRECDTDGWTNDIPICEVVKCLPVTAPENGKIVSSAMEPDREYHFGQAVRFVCNSGYKIEGDEEMHCSDDGFWSKEKPKCVEISCKSPDVINGSPISQKIIYKENERFQYKCNMGYEYSERGDAVCTESGWRPLPSCEEKSCDNPYIPNGDYSPLRIKHRTGDEITYQCRNGFYPATRGNTAKCTSTGWIPAPRCTSGSGGGGGTKHGGLYHENMRRPYFPVAVGKYYSYYCDEHFETPSGSYWDHIHCTQDGWSPAVPCLRKCYFPYLENGYNQNYGRKFVQGKSIDVACHPGYALPKAQTTVTCMENGWSPTPRCIRVSFTL",binding,[2],binds
same,binding,plasma derived C3b [3],binds
"CD-FHL1 (FH^1-5∧L6-L7∧R1-2) (protein, glycosylation site on FHR1 CCP domain 2) EDCNELPPRRNTEILTGSWSDQTYPEGTQAIYKCRPGYRSLGNIIMVCRKGEWVALNPLRKCQKRPCGHPGDTPFGTFTLTGGNVFEYGVKAVYTCNEGYQLLGEINYRECDTDGWTNDIPICEVVKCLPVTAPENGKIVSSAMEPDREYHFGQAVRFVCNSGYKIEGDEEMHCSDDGFWSKEKPKCVEISCKSPDVINGSPISQKIIYKENERFQYKCNMGYEYSERGDAVCTESGWRPLPSCEEKSCDNPYIPNGDYSPLRIKHRTGDEITYQCRNGFYPATRGNTAKCTSTGWIPAPRCTSGSGGGGVDTKHGGLYHENMRRPYFPVAVGKYYSYYCDEHFETPSGSYWDHIHCTQDGWSPAVPCLRKCYFPYLENGYNQNYGRKFVQGKSIDVACHPGYALPKAQTTVTCMENGWSPTPRCIRVSFTLGTEATFCDFPKINHGILYDEEKYKPFSQVPTGEVFYYSCEYNFVSPSKSFWTRITCTEEGWSPTPKCLRLCFFPFVENGHSESSGQTHLEGDTVQIICNTGYRLQNNENNISCVERGWSTPPKCRSTDTS",binding,[2],binds
same,binding,plasma derived C3b [3],binds
